# Test results as given in patent US6428985 (REGENTS OF THE UNIVERSITY OF MICHIGAN, dated 2002).
# No constants are given. Whether binding was seen depends on the method and setting. A result given as binding can be weak or reduced; the word gives no strength.
# Biological target: T1, mIL-10R1 on Ba/F3-mIL-10R1 cells (mouse pro-B cell line stably transfected with mIL-10R1) (murine) (UniProt Q61727)
# T1 sequence (looked up): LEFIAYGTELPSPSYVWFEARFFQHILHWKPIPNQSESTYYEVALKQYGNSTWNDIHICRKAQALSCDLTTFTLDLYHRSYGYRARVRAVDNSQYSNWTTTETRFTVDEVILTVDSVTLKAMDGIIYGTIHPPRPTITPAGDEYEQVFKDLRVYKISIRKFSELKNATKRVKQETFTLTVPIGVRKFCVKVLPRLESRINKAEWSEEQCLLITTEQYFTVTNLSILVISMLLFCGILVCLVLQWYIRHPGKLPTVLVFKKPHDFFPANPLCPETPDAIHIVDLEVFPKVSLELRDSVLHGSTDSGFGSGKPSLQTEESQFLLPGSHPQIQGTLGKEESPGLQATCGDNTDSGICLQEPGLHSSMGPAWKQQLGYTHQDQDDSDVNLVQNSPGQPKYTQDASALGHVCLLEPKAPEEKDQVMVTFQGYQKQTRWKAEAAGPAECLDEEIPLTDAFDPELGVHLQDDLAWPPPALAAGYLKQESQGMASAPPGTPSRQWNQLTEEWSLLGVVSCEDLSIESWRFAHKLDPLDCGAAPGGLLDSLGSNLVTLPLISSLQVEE
# Test: flow cytometry on Ba/F3-mIL-10R1 cells
row,Substance,binding
1,vIL-10 with amino terminal FLAG tag (pFLAGCMV-1 construct) (ligand),binds
2,vIL-10 with carboxyl terminal myc-his tag (ligand),binds
